PubChem BioAssay AID1159584, Peter MacCallum Cancer Centre, 2016
This is one part, drawn at random, of about 18,000 deposited reagents. Reagent sequences are not shown. The record does not give: the amount of reagent, the time to read-out.

- Purpose: 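Genes whose loss is lethal only together with E-cadherin loss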 (primary screen)
- System: human MCF10A breast epithelial cells, parental and CDH1-null
- Reagents: siRNA against human genes
- Read-out: 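ATP luminescence (CellTiter-Glo) viability per line relative to mean mock wells over all plates, and the ratio of CDH1-null to parental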
- Direction: CDH1-null / parental viability ratio: higher = CDH1-null cells survive relatively better than parental; CDH1-null viability vs mock: higher = more viable CDH1-null cells; parental viability vs mock: higher = more viable parental cells

gene | CDH1-null / parental viability ratio | CDH1-null viability vs mock (fraction of mock) | parental viability vs mock (fraction of mock)
CNTNAP3 (contactin associated protein family member 3) | 0.96 | 0.69 | 0.72
SRRT (serrate, RNA effector molecule) | 1.16 | 0.86 | 0.74
ENTREP1 (endosomal transmembrane epsin interactor 1) | 1.56 | 0.64 | 0.41
DNAJC15 (DnaJ heat shock protein family (Hsp40) member C15) | 0.96 | 0.77 | 0.8
IMPA1 (inositol monophosphatase 1) | 1.08 | 0.9 | 0.83
THUMPD2 (THUMP domain 2 tRNA and snRNA guanosine methyltransferase) | 0.97 | 0.91 | 0.94
ARHGAP24 (Rho GTPase activating protein 24) | 0.88 | 0.74 | 0.84
EPS8L1 (EPS8 signaling adaptor L1) | 1 | 0.64 | 0.64
PI4KB (phosphatidylinositol 4-kinase beta) | 0.86 | 0.63 | 0.73
PIP5KL1 (phosphatidylinositol-4-phosphate 5-kinase like 1) | 0.99 | 0.79 | 0.8
OIP5 (Opa interacting protein 5) | 0.93 | 0.91 | 0.98
PADI6 (peptidyl arginine deiminase 6) | 0.96 | 0.92 | 0.96
DAG1 (dystroglycan 1) | 1.07 | 0.98 | 0.92
UBE2D3 (ubiquitin conjugating enzyme E2 D3) | 0.93 | 0.78 | 0.84
TBK1 (TANK binding kinase 1) | 0.85 | 0.88 | 1.04
FCER2 (Fc epsilon receptor II) | 0.81 | 0.83 | 1.03
CTPS2 (CTP synthase 2) | 0.91 | 0.82 | 0.9
USP46 (ubiquitin specific peptidase 46) | 1.14 | 0.95 | 0.83
BST1 (bone marrow stromal cell antigen 1) | 0.79 | 0.52 | 0.66
GPT (glutamic--pyruvic transaminase) | 1.06 | 0.74 | 0.7
ZC3H11A (zinc finger CCCH-type containing 11A) | 0.97 | 0.74 | 0.76
SRPK1 (SRSF protein kinase 1) | 1 | 0.94 | 0.94
OGN (osteoglycin) | 1.19 | 0.88 | 0.74
ASIC2 (acid sensing ion channel subunit 2) | 1.19 | 1.02 | 0.86
SPATA45 (spermatogenesis associated 45) | 1 | 0.69 | 0.69
NUP42 (nucleoporin 42) | 1.11 | 0.92 | 0.83
QTRT2 (queuine tRNA-ribosyltransferase accessory subunit 2) | 1.07 | 0.77 | 0.72
DNTT (DNA nucleotidylexotransferase) | 0.95 | 0.7 | 0.74
ENTPD3 (ectonucleoside triphosphate diphosphohydrolase 3) | 0.62 | 0.5 | 0.8
DMRTA1 (DMRT like family A1) | 1.18 | 0.52 | 0.44
TTC12 (tetratricopeptide repeat domain 12) | 1.14 | 0.89 | 0.78
POTEB3 (POTE ankyrin domain family member B3) | 1.31 | 0.98 | 0.75
NPRL2 (NPR2 like, GATOR1 complex subunit) | 1.18 | 1.04 | 0.88
ITGA11 (integrin subunit alpha 11) | 0.95 | 0.63 | 0.66
DCLRE1B (DNA cross-link repair 1B) | 0.74 | 0.64 | 0.86
RINL (Ras and Rab interactor like) | 0.94 | 0.34 | 0.36
ZSWIM9 (zinc finger SWIM-type containing 9) | 1.12 | 0.93 | 0.83
C1orf146 (chromosome 1 open reading frame 146) | 0.81 | 0.63 | 0.78
H4C4 (H4 clustered histone 4) | 1.42 | 0.74 | 0.52
OR5T3 (olfactory receptor family 5 subfamily T member 3) | 1.14 | 0.75 | 0.66
C11orf65 (chromosome 11 open reading frame 65) | 0.88 | 0.74 | 0.84
BLCAP (BLCAP apoptosis inducing factor) | 1.17 | 0.47 | 0.4
GCHFR (GTP cyclohydrolase I feedback regulator) | 1.15 | 0.76 | 0.66
SNX16 (sorting nexin 16) | 1.13 | 1.15 | 1.02
TMEM231 (transmembrane protein 231) | 1 | 0.84 | 0.84
IL18BP (interleukin 18 binding protein) | 1.31 | 0.38 | 0.29
MCF2 (MCF.2 cell line derived transforming sequence) | 0.96 | 1.14 | 1.19
CCT2 (chaperonin containing TCP1 subunit 2) | 1.32 | 0.75 | 0.57
KCNQ4 (potassium voltage-gated channel subfamily Q member 4) | 1.56 | 0.84 | 0.54
MGMT (O-6-methylguanine-DNA methyltransferase) | 1.19 | 1.12 | 0.94
NTRK3 (neurotrophic receptor tyrosine kinase 3) | 0.97 | 0.9 | 0.93
ENTPD5 (ectonucleoside triphosphate diphosphohydrolase 5) | 1.14 | 1.04 | 0.91
PYDC2 (pyrin domain containing 2) | 1.05 | 0.81 | 0.77
TSFM (Ts translation elongation factor, mitochondrial) | 1.1 | 1.09 | 0.99
ARTN (artemin) | 1.23 | 0.74 | 0.6
CD3G (CD3 gamma subunit of T-cell receptor complex) | 1.12 | 0.9 | 0.8
SDSL (serine dehydratase like) | 1.07 | 0.95 | 0.89
TOMM20L (translocase of outer mitochondrial membrane 20 like) | 1.54 | 0.83 | 0.54
XIRP1 (xin actin binding repeat containing 1) | 0.75 | 0.4 | 0.53
ZNF197 (zinc finger protein 197) | 0.98 | 0.82 | 0.84
CSF3 (colony stimulating factor 3) | 1.07 | 0.62 | 0.58
IL18R1 (interleukin 18 receptor 1) | 0.78 | 0.72 | 0.92
LHFPL2 (LHFPL tetraspan subfamily member 2) | 1.1 | 0.99 | 0.9
RIN2 (Ras and Rab interactor 2) | 1.32 | 0.99 | 0.75
ZNF789 (zinc finger protein 789) | 0.94 | 0.62 | 0.66
FBRS (fibrosin) | 0.88 | 0.65 | 0.74
HOXD9 (homeobox D9) | 1 | 0.52 | 0.52
LAGE3 (L antigen family member 3) | 0.84 | 0.84 | 1

Ordered by “CDH1-null / parental viability ratio” (highest first): 6 of the entries above
gene | CDH1-null / parental viability ratio | CDH1-null viability vs mock (fraction of mock) | parental viability vs mock (fraction of mock)
RIN2 (Ras and Rab interactor 2) | 1.32 | 0.99 | 0.75
LHFPL2 (LHFPL tetraspan subfamily member 2) | 1.1 | 0.99 | 0.9
CSF3 (colony stimulating factor 3) | 1.07 | 0.62 | 0.58
ZNF197 (zinc finger protein 197) | 0.98 | 0.82 | 0.84
ZNF789 (zinc finger protein 789) | 0.94 | 0.62 | 0.66
IL18R1 (interleukin 18 receptor 1) | 0.78 | 0.72 | 0.92
